Results are given in words; binding and its absence hold for the method and conditions named. Binding seen in cells or lysates may run through a third protein. Some binding calls cover weakened binding; strength is not graded here. Where a sequence is shown, tags or fusion partners need not be part of it.
T1: triple-FLAG MRI (wild type) (UniProt Q8BHZ5)
T1 sequence: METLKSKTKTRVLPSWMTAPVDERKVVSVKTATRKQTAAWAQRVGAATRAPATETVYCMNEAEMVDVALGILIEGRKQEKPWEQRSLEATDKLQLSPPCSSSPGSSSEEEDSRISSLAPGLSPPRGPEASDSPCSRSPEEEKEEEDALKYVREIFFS

Sequences of proteins named here, by UniProt entry; tags and fusion partners are left off.
UniProt Q9JIM3, whole entry: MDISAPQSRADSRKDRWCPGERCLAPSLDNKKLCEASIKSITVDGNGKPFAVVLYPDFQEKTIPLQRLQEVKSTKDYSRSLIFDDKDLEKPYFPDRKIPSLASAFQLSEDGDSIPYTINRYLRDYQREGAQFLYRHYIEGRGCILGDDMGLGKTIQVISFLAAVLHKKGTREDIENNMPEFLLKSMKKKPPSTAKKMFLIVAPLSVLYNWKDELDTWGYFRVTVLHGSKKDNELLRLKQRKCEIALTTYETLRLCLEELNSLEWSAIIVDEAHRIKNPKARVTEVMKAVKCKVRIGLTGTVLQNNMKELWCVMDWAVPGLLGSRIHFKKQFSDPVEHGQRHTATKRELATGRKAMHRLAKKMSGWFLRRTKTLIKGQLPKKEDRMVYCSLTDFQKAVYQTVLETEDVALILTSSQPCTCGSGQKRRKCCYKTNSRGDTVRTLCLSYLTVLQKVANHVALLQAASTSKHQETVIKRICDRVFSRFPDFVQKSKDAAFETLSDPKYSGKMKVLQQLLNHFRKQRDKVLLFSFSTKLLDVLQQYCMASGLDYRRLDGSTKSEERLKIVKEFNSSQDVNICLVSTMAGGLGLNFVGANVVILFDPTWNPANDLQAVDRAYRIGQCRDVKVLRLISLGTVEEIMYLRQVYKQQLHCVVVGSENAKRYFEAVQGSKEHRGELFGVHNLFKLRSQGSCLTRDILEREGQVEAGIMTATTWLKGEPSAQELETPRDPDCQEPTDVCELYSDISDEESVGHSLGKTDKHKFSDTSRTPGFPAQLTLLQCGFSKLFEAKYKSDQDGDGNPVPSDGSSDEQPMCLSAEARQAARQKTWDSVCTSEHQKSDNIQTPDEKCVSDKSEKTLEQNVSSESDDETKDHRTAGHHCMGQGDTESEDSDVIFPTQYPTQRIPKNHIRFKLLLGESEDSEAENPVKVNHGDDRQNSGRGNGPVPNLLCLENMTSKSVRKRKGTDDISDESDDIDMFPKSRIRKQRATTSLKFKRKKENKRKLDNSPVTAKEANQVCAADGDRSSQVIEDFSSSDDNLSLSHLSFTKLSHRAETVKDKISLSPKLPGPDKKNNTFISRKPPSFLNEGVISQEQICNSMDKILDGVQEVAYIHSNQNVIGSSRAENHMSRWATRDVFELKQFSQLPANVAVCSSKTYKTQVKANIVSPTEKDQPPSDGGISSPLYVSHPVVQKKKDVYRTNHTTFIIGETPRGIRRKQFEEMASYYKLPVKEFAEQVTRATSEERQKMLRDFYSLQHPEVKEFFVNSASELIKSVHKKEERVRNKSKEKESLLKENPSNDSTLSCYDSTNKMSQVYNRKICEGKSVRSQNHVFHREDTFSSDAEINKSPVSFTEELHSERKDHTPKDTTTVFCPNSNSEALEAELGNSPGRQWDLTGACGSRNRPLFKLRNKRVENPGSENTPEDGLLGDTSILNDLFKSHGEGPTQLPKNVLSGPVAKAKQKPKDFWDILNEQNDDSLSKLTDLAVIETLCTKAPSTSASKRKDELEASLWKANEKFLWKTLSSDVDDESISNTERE

B1: triple-FLAG MRI (wild type) (protein, UniProt Q8BHZ5 1-157)
chain: METLKSKTKTRVLPSWMTAPVDERKVVSVKTATRKQTAAWAQRVGAATRAPATETVYCMNEAEMVDVALGILIEGRKQEKPWEQRSLEATDKLQLSPPCSSSPGSSSEEEDSRISSLAPGLSPPRGPEASDSPCSRSPEEEKEEEDALKYVREIFFS

Assays:
[1] = target: T1, triple-FLAG MRI (wild type); experiment: pull-down
[2] = target: TwinStrep-HA-ERCC6L2 (endogenously tagged) (mouse (endogenous in CH12-F3)) (UniProt Q9JIM3); experiment: pull-down

Molecule | binding [1] | binding [2]
TwinStrep-HA-ERCC6L2 (endogenously tagged) (from UniProt Q9JIM3 1-1537) (enzyme) | binds | –
B1 | – | binds
